PMC5053674
No constants are given. Whether binding was seen depends on the method and setting. Binding seen in cells or lysates may run through a third protein.

Molecular target: human epidermal growth factor receptor 2 (ErbB2/Her2) (human (endogenous in BT474 and BT474-TR)) (UniProt P04626)
Assay: co-IP; immunoprecipitation of Her2 (anti-Her2 antibody on beads, 2 mg lysate, overnight at 4°C, washed with RIPA buffer) from BT474-TR and BT474 lysates, western blotting; IgG as control; for c-Cbl: cells transfected with vector or ATG9A-encoding plasmid, trastuzumab 20 μg/ml for 48 hours

B1: autophagy related protein 9A (ATG9A) (protein, UniProt Q7Z3C6 1-839)
chain: MAQFDTEYQRLEASYSDSPPGEEDLLVHVAEGSKSPWHHIENLDLFFSRVYNLHQKNGFTCMLIGEIFELMQFLFVVAFTTFLVSCVDYDILFANKMVNHSLHPTEPVKVTLPDAFLPAQVCSARIQENGSLITILVIAGVFWIHRLIKFIYNICCYWEIHSFYLHALRIPMSALPYCTWQEVQARIVQTQKEHQICIHKRELTELDIYHRILRFQNYMVALVNKSLLPLRFRLPGLGEAVFFTRGLKYNFELILFWGPGSLFLNEWSLKAEYKRGGQRLELAQRLSNRILWIGIANFLLCPLILIWQILYAFFSYAEVLKREPGALGARCWSLYGRCYLRHFNELEHELQSRLNRGYKPASKYMNCFLSPLLTLLAKNGAFFAGSILAVLIALTIYDEDVLAVEHVLTTVTLLGVTVTVCRSFIPDQHMVFCPEQLLRVILAHIHYMPDHWQGNAHRSQTRDEFAQLFQYKAVFILEELLSPIVTPLILIFCLRPRALEIIDFFRNFTVEVVGVGDTCSFAQMDVRQHGHPQWLSAGQTEASVYQQAEDGKTELSLMHFAITNPGWQPPRESTAFLGFLKEQVQRDGAAASLAQGGLLPENALFTSIQSLQSESEPLSLIANVVAGSSCRGPPLPRDLQGSRHRAEVASALRSFSPLQPGQAPTGRAHSTMTGSGVDARTASSGSSVWEGQLQSLVLSEYASTEMSLHALYMHQLHKQQAQAEPERHVWHRRESDESGESAPDEGGEGARAPQSIPRSASYPCAAPRPGAPETTALHGGFQRRYGGITDPGTVPRVPSHFSRLPLGGWAEDGQSASRHPEPVPEEGSEDELPPQVHKV
binding: no binding
